Construct, isoform or probe ends are uncertain for at least one entry. At least one result comes from cells or an extract, where the contact may be indirect.
Target: c-Rel (UniProt P15307)
Experiment: EMSA supershift
Conditions: nuclear extract of RAW264.7 + 10 ng/mL TNF-a, anti-c-Rel, light supershifted band; 3 ug nuclear protein, 0.25 pmol probe, 10 min at room temperature; 4% polyacrylamide gel, 0.25X TBE; binding buffer, salt and pH not stated; protein in an extract; label: 32P (Klenow fill-in with [a-32P]dCTP)

Sequences of proteins named here, by UniProt entry; tags and fusion partners are left off. Residues count along the entry.
UniProt P15307, 2-587: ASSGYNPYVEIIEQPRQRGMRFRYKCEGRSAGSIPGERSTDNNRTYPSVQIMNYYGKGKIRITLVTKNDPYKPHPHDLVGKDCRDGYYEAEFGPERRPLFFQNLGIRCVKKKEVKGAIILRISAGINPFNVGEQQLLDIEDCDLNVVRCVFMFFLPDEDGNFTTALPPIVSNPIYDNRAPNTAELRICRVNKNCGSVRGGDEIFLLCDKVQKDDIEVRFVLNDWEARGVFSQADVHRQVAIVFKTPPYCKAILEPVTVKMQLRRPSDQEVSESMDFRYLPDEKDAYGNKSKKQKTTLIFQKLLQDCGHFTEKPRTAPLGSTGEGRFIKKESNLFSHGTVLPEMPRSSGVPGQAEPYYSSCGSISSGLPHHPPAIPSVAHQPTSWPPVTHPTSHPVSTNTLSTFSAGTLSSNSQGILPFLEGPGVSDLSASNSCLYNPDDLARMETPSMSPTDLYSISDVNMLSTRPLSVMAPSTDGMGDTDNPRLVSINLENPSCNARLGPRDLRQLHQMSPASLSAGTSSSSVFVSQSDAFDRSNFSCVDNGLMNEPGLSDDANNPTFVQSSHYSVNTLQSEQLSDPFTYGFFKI

## GGGCATGGGAATTTCCAACTC (double strand) [NF-kB consensus oligonucleotide probe]
  binding result: binds

Source: PMC3241368
